No constants are given. Whether binding was seen depends on the method and setting. Some entries that bind do so weakly or less than the wild type.
Target: Med1 IDR-GFP fusion protein (purified, recombinant) (UniProt Q15648)
Assay: in vitro droplet mixing of purified proteins with 10% PEG-8000

Chains of the proteins cited; added tags and fusions are not shown. Lines headed by an entry give the natural chain unless they say otherwise; changes in a name come on top. Residues count along the entry.
UniProt Q15648, residues 948-1574: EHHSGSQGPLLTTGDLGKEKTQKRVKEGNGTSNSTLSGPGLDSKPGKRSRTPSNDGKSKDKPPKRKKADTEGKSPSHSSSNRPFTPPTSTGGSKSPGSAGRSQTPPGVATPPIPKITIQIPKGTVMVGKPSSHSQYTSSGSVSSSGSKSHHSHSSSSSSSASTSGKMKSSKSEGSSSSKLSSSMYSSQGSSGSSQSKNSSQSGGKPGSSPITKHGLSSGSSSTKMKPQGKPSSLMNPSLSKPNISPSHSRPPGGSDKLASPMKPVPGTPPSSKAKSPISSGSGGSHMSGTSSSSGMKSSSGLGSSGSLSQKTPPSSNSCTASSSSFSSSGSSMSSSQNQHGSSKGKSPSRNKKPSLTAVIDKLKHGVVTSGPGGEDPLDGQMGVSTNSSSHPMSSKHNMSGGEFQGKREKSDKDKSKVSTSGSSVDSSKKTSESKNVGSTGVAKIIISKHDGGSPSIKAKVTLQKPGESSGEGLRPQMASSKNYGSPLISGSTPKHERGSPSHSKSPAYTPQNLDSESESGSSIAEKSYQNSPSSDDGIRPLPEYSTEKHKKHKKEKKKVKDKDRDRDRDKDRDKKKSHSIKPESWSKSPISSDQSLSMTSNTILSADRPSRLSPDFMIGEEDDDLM
UniProt P31271: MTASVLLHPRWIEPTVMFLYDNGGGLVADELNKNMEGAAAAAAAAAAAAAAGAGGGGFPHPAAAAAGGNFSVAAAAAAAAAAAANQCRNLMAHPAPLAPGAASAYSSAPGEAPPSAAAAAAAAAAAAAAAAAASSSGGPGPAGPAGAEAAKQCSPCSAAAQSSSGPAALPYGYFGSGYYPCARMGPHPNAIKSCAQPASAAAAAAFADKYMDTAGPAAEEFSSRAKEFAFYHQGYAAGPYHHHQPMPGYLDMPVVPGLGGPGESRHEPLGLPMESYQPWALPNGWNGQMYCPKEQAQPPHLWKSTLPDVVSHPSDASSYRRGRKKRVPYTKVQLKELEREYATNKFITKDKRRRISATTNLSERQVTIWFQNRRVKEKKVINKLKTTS
UniProt Q13950, residues 1-100: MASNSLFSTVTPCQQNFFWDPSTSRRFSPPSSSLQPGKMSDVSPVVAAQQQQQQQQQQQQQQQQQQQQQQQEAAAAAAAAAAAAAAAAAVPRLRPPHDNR

| binding | Substance |
| --- | --- |
| binds | Hoxa13 wt IDR-mCherry fusion protein (purified) (from UniProt P31271 30-227) |
| binds | Runx2 wt IDR-mCherry fusion protein (purified) (from UniProt Q13950 1-100) |

Reference: patent US20230168255A1, “UNBLENDING OF TRANSCRIPTIONAL CONDENSATES IN HUMAN REPEAT EXPANSION DISEASE” (Max-Planck-Gesellschaft zur Förderung der Wissenschaften …, priority 2020, published 2023)
